In the assay the target is T1, FLAGBirA*-tagged FBXO38 (UniProt Q6PIJ6).
T1 sequence: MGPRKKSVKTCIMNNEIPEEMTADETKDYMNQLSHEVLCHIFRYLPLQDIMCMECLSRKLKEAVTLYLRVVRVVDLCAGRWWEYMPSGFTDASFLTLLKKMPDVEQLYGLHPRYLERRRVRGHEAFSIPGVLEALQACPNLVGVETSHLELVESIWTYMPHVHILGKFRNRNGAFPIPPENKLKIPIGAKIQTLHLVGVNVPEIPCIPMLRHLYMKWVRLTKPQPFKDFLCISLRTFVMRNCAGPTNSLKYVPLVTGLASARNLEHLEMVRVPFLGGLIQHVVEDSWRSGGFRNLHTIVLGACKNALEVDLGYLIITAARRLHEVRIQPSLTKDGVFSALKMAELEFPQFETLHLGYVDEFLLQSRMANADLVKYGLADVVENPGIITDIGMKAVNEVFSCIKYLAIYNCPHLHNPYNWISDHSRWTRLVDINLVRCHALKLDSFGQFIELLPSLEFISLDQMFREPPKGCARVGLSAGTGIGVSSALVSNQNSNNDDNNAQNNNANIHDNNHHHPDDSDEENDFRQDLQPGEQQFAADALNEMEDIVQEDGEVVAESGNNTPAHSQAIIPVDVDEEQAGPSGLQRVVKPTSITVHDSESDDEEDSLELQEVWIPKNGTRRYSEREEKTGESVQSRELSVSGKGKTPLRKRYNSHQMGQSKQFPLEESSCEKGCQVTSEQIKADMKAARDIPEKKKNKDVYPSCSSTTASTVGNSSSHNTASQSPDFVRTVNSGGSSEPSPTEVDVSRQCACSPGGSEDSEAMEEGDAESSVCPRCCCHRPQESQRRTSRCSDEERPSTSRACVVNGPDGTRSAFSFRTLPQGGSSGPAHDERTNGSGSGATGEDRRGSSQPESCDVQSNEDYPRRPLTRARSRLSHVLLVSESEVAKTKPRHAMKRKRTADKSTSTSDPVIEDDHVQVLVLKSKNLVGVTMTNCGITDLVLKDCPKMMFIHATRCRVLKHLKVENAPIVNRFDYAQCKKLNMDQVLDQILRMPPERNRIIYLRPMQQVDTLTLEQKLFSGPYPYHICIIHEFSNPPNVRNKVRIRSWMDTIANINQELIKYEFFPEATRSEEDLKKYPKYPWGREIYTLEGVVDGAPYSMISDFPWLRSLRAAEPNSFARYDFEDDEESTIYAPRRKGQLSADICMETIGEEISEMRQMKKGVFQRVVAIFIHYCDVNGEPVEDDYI
Nature of the assay: proximity labelling; BioID: FLAGBirA*-FBXO38 induced with tetracycline in 293 T-REx cells with 50 µM biotin for 24 hrs; Streptavidin Sepharose beads; LC-MS/MS; FLAGBirA* alone as control; BFDR ≤ 0.01.

The chains behind the UniProt entries cited, without tags or fusion partners.
UniProt Q96Q89: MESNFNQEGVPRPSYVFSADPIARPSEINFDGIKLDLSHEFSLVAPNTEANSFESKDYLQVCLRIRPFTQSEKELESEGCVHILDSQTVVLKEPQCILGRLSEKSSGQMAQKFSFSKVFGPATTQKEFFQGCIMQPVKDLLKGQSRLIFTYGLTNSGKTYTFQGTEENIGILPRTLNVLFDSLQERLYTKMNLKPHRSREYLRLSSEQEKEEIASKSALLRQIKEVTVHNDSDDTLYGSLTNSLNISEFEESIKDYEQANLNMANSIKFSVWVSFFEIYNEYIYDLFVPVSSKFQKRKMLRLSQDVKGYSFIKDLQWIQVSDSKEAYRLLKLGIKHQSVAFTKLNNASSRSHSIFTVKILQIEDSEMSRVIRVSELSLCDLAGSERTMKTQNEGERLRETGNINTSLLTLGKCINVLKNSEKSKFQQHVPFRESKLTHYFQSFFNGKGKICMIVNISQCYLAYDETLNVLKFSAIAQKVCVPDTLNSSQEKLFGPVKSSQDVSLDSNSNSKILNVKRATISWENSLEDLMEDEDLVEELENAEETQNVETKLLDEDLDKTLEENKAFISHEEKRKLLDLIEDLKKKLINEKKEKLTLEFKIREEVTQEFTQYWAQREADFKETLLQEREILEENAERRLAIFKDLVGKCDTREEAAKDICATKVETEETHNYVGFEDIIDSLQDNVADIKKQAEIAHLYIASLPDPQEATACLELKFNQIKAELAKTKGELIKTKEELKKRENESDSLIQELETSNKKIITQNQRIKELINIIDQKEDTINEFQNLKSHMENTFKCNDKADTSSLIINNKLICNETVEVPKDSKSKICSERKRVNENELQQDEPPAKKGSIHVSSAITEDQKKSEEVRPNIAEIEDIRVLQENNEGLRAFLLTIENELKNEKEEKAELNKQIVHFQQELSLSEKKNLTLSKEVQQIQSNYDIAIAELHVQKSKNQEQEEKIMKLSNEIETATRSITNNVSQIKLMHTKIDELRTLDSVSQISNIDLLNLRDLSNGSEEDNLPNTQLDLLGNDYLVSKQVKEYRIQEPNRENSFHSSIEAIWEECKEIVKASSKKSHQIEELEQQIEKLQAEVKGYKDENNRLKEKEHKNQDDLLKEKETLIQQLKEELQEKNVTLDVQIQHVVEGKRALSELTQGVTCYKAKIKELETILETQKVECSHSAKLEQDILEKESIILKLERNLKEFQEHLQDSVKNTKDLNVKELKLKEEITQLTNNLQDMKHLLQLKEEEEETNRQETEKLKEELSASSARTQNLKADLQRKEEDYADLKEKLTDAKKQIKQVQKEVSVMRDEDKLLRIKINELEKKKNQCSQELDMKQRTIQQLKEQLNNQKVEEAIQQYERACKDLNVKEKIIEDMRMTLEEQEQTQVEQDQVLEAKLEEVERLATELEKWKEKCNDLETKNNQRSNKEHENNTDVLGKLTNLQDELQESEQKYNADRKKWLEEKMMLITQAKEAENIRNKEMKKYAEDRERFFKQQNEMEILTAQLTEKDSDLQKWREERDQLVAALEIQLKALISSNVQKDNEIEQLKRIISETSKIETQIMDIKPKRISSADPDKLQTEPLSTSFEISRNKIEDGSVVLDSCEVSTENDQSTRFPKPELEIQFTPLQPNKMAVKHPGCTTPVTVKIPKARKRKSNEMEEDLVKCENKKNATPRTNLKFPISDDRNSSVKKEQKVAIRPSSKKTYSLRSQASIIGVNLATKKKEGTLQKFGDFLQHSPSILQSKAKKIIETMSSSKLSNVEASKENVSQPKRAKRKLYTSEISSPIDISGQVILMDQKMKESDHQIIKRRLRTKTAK
UniProt P63208: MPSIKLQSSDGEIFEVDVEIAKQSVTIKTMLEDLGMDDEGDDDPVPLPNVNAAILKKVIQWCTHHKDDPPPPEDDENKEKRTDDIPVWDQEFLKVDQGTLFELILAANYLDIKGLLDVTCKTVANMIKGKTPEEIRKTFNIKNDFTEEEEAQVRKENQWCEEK

Results are given in words; binding and its absence hold for the method and conditions named. In cells and extracts the contact can be indirect. A yes stands for co-enrichment or nearness to the bait. Other partners may have been found. Tags and fused reporters may be left off the sequences shown.

With “Kinesin Family member 20B (KIF20B), endogenous (from UniProt Q96Q89 1-1820)”, the binding entry is given as “binds”.

Turning to “SKP1 (endogenous) (from UniProt P63208 1-163)”, the binding entry is given as “binds”.

The values are drawn from article PMC6389929.
